# The supplement of paper PMC8728848
# The other results are listed elsewhere or left out.
# B1: OS9 (Arabidopsis thaliana) (protein)
# chain: MRGSHHHHHHGMASMTGGQQMGRDLYDDDDKSRLQIFPAHLVGTFSRNNREPKYKIEFLPEDSPFHPGDNLESMVMLDKHGNRFLCYLPKEEKATSGWTSSQQNISTVMMETQQLVKLKTPDELLQPLSEKCLFRQEGWWSYEFCHQKYVRQLHVEDENKIVQEFFLGTFDPEATAAFNQTVSDASTDASQRYHSHVYTNGTTCDLTGSPREVEVRFVCAETRAMVTSITELSTCKYALTVQCPTLCKHPLFQLEKPVSHTIHCNAIPVEEDATRNKEEQAVDESPKMIADS
# Columns and labels:
# Experiment in all cases: glycan array binding signal (z-score within array); higher = stronger binding
# Conditions in all cases: glycan notation: IUPAC condensed, linker removed
# [1] = biological target: GlcNAc(b1-2)[GlcNAc(b1-6)]Man(a1-6)[GlcNAc(b1-4)][GlcNAc(b1-2)Man(a1-3)]Man(b1-4)GlcNAc(b1-4)GlcNAc
# Outline: (§1)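 Glycan array binding is given as a within-array Z-score, which can be read as non-binding when negative. The arrays, 3228 of them, came from the Consortium for Functional Glycomics database and were retained only where the protein sequence was available. Z-scores were averaged across arrays of the same protein sequence at different concentrations or buffers and across linkers.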
# GlcNAc(b1-3)Fuc = biological target: GlcNAc(b1-3)Fuc
# Outline: as §1
# GlcNAc(b1-3)Gal = biological target: GlcNAc(b1-3)Gal
# Outline: as §1
# [2] = biological target: GlcNAc(b1-3)Gal(b1-3)GalNAc
# Outline: as §1
# GlcNAc(b1-3)Gal(b1-4)Glc = biological target: GlcNAc(b1-3)Gal(b1-4)Glc
# Outline: as §1
# [3] = biological target: GlcNAc(b1-3)Gal(b1-4)GlcNAc
# Outline: as §1
# [4] = biological target: GlcNAc(b1-3)Gal(b1-4)GlcNAc(b1-2)Man(a1-3)[GlcNAc(b1-3)Gal(b1-4)GlcNAc(b1-2)Man(a1-6)]Man(b1-4)GlcNAc(b1-4)GlcNAc
# Outline: as §1
# [5] = biological target: GlcNAc(b1-3)Gal(b1-4)GlcNAc(b1-2)Man(a1-3)[GlcNAc(b1-3)Gal(b1-4)GlcNAc(b1-2)Man(a1-6)]Man(b1-4)GlcNAc(b1-4)[Fuc(a1-6)]GlcNAc
# Outline: as §1
# [6] = biological target: GlcNAc(b1-3)Gal(b1-4)GlcNAc(b1-2)[GlcNAc(b1-3)Gal(b1-4)GlcNAc(b1-6)]Man(a1-6)[GlcNAc(b1-3)Gal(b1-4)GlcNAc(b1-2)Man(a1-3)]Man(b1-4)GlcNAc(b1-4)GlcNAc
# Outline: as §1
# [7] = biological target: GlcNAc(b1-3)Gal(b1-4)GlcNAc(b1-3)Gal(b1-4)GlcNAc
# Outline: as §1
# [8] = biological target: GlcNAc(b1-3)Gal(b1-4)GlcNAc(b1-3)Gal(b1-4)GlcNAc(b1-2)Man(a1-3)[GlcNAc(b1-3)Gal(b1-4)GlcNAc(b1-3)Gal(b1-4)GlcNAc(b1-2)Man(a1-6)]Man(b1-4)GlcNAc(b1-4)GlcNAc
# Outline: as §1
# [9] = biological target: GlcNAc(b1-3)Gal(b1-4)GlcNAc(b1-3)Gal(b1-4)GlcNAc(b1-2)Man(a1-3)[GlcNAc(b1-3)Gal(b1-4)GlcNAc(b1-3)Gal(b1-4)GlcNAc(b1-2)Man(a1-6)]Man(b1-4)GlcNAc(b1-4)[Fuc(a1-6)]GlcNAc
# Outline: as §1
# [10] = biological target: GlcNAc(b1-3)Gal(b1-4)GlcNAc(b1-3)Gal(b1-4)GlcNAc(b1-2)[GlcNAc(b1-3)Gal(b1-4)GlcNAc(b1-3)Gal(b1-4)GlcNAc(b1-6)]Man(a1-6)[GlcNAc(b1-3)Gal(b1-4)GlcNAc(b1-3)Gal(b1-4)GlcNAc(b1-2)Man(a1-3)]Man(b1-4)GlcNAc(b1-4)[Fuc(a1-6)]GlcNAc
# Outline: as §1
# [11] = biological target: GlcNAc(b1-3)Gal(b1-4)GlcNAc(b1-3)Gal(b1-4)GlcNAc(b1-3)Gal(b1-4)GlcNAc(b1-2)Man(a1-3)[GlcNAc(b1-3)Gal(b1-4)GlcNAc(b1-3)Gal(b1-4)GlcNAc(b1-3)Gal(b1-4)GlcNAc(b1-2)Man(a1-6)]Man(b1-4)GlcNAc(b1-4)GlcNAc
# Outline: as §1
# [12] = biological target: GlcNAc(b1-3)Gal(b1-4)GlcNAc(b1-3)Gal(b1-4)GlcNAc(b1-3)Gal(b1-4)GlcNAc(b1-2)Man(a1-3)[GlcNAc(b1-3)Gal(b1-4)GlcNAc(b1-3)Gal(b1-4)GlcNAc(b1-3)Gal(b1-4)GlcNAc(b1-2)Man(a1-6)]Man(b1-4)GlcNAc(b1-4)[Fuc(a1-6)]GlcNAc
# Outline: as §1
# [13] = biological target: GlcNAc(b1-3)Gal(b1-4)GlcNAc(b1-3)Gal(b1-4)GlcNAc(b1-3)Gal(b1-4)GlcNAc(b1-2)[GlcNAc(b1-3)Gal(b1-4)GlcNAc(b1-3)Gal(b1-4)GlcNAc(b1-3)Gal(b1-4)GlcNAc(b1-6)]Man(a1-6)[GlcNAc(b1-3)Gal(b1-4)GlcNAc(b1-3)Gal(b1-4)GlcNAc(b1-3)Gal(b1-4)GlcNAc(b1-2)Man(a1-3)]Man(b1-4)GlcNAc(b1-4)[Fuc(a1-6)]GlcNAc
# Outline: as §1
# [14] = biological target: GlcNAc(b1-3)Gal(b1-4)GlcNAc(b1-3)Gal(b1-4)GlcNAc(b1-3)Gal(b1-4)GlcNAc(b1-3)Gal(b1-4)GlcNAc(b1-2)Man(a1-3)[GlcNAc(b1-3)Gal(b1-4)GlcNAc(b1-3)Gal(b1-4)GlcNAc(b1-3)Gal(b1-4)GlcNAc(b1-3)Gal(b1-4)GlcNAc(b1-2)Man(a1-6)]Man(b1-4)GlcNAc(b1-4)GlcNAc
# Outline: as §1
# [15] = biological target: GlcNAc(b1-3)Gal(b1-4)GlcNAc(b1-3)Gal(b1-4)GlcNAc(b1-3)Gal(b1-4)GlcNAc(b1-3)Gal(b1-4)GlcNAc(b1-2)Man(a1-3)[GlcNAc(b1-3)Gal(b1-4)GlcNAc(b1-3)Gal(b1-4)GlcNAc(b1-3)Gal(b1-4)GlcNAc(b1-3)Gal(b1-4)GlcNAc(b1-2)Man(a1-6)]Man(b1-4)GlcNAc(b1-4)[Fuc(a1-6)]GlcNAc
# Outline: as §1
# [16] = biological target: GlcNAc(b1-3)Gal(b1-4)GlcNAc(b1-3)Gal(b1-4)GlcNAc(b1-3)Gal(b1-4)GlcNAc(b1-3)Gal(b1-4)GlcNAc(b1-2)[GlcNAc(b1-3)Gal(b1-4)GlcNAc(b1-3)Gal(b1-4)GlcNAc(b1-3)Gal(b1-4)GlcNAc(b1-3)Gal(b1-4)GlcNAc(b1-6)]Man(a1-6)[GlcNAc(b1-3)Gal(b1-4)GlcNAc(b1-3)Gal(b1-4)GlcNAc(b1-3)Gal(b1-4)GlcNAc(b1-3)Gal(b1-4)GlcNAc(b1-2)Man(a1-3)]Man(b1-4)GlcNAc(b1-4)[Fuc(a1-6)]GlcNAc
# Outline: as §1
binder,measurement,setting,value
B1,glycan array binding signal (z-score),[1],0.226
same,glycan array binding signal (z-score),GlcNAc(b1-3)Fuc,-0.426
same,glycan array binding signal (z-score),GlcNAc(b1-3)Gal,-0.546
same,glycan array binding signal (z-score),[2],0.065
same,glycan array binding signal (z-score),GlcNAc(b1-3)Gal(b1-4)Glc,-0.758
same,glycan array binding signal (z-score),[3],-0.947
same,glycan array binding signal (z-score),[4],-0.442
same,glycan array binding signal (z-score),[5],1.46
same,glycan array binding signal (z-score),[6],0.647
same,glycan array binding signal (z-score),[7],-1.17
same,glycan array binding signal (z-score),[8],0.616
same,glycan array binding signal (z-score),[9],-0.144
same,glycan array binding signal (z-score),[10],0.174
same,glycan array binding signal (z-score),[11],1.23
same,glycan array binding signal (z-score),[12],-0.875
same,glycan array binding signal (z-score),[13],1.19
same,glycan array binding signal (z-score),[14],-0.507
same,glycan array binding signal (z-score),[15],0.653
same,glycan array binding signal (z-score),[16],-0.274

# Exported with tabs: part of the list above
binder	measurement	setting	value
B1	glycan array binding signal (z-score)	GlcNAc(b1-3)Gal(b1-4)Glc	-0.758
same	glycan array binding signal (z-score)	[10]	0.174
